From the supplement of paper PMC4862054
Small differences around the control level are noise.

Columns and labels:
Experiment in all cases: normalised response (% of control), CellTox Green; higher = less cell death (100 = DMSO, 0 = benzethonium chloride kill control)
Conditions in all cases: incubation time: 72 h
[1] = tested on: BT-474
Method: (§1)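 DSRT, 72 h incubation, CellTox Green / CellTiter-Glo readout. Signal is normalised to DMSO and benzethonium chloride controls. Value is the normalised response at the lowest tested concentration.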

[2] = tested on: BT-549
Method: as §1

[3] = tested on: CAL-120
Method: as §1

[4] = tested on: CAL-148
Method: as §1

[5] = tested on: CAL-51
Method: as §1

[6] = tested on: CAL-85-1
Method: as §1

[7] = tested on: DU-4475
Method: as §1

[8] = tested on: HCC1143
Method: as §1

[9] = tested on: HCC1599
Method: as §1

[10] = tested on: HCC1937
Method: as §1

[11] = tested on: HDQ-P1
Method: as §1

[12] = tested on: Hs578T
Method: as §1

[13] = tested on: MCF-10A
Method: as §1

[14] = tested on: MDA-MB-231
Method: as §1

[15] = tested on: MDA-MB-436
Method: as §1

[16] = tested on: MDA-MB-453
Method: as §1

[17] = tested on: MDA-MB-468
Method: as §1

[18] = tested on: MFM-223
Method: as §1

In the case of `CN1CCN(c2nc(C3=C(c4c[nH]c5ccccc45)C(=O)NC3=O)c3ccccc3n2)CC1` [Sotrastaurin] (1 nM), the normalised response [1] was 98.8%, the normalised response [2] was 102% and the normalised response [3] was 100%. The normalised response [4] was 66.8%, the normalised response [5] was 97.5% and the normalised response [6] was 98.3%. The normalised response [7] was 99.2%, the normalised response [8] was 119% and the normalised response [9] was 92.2%. For the same compound, the normalised response [10] was 88.1%, the normalised response [11] was 99.9% and the normalised response [12] was 52.1%. For the same compound, the normalised response [13] was 90.9%, the normalised response [14] was 105% and the normalised response [15] was 74.3%. For the same compound, the normalised response [16] was 103%, the normalised response [17] was 125% and the normalised response [18] was 102%.

For `O=C1NC(=O)[C@@H](c2cn3c4c(cccc24)CCC3)[C@@H]1c1c[nH]c2ccccc12` [Tivantinib] (0.1 nM), the normalised response [1] was 96.3%, the normalised response [2] was 93.6% and the normalised response [3] was 94.1%. It also gave a normalised response [4] of 103%, a normalised response [5] of 94.7% and a normalised response [6] of 92.5%. The normalised response [7] was 101%, the normalised response [8] was 98.8% and the normalised response [9] was 99.8%. The normalised response [10] was 76.5%, the normalised response [11] was 103% and the normalised response [12] was 109%. It also gave a normalised response [13] of 80.9%, a normalised response [14] of 106% and a normalised response [15] of 94.7%. For the same compound, the normalised response [16] was 111%, the normalised response [17] was 115% and the normalised response [18] was 98.7%.

With `CC(C)C[C@@H](C(=O)N[C@H](C(=O)OC1CCCC1)c1ccccc1)[C@H](O)C(=O)NO` [Tosedostat] (1 nM) the normalised response [1] was 101%, the normalised response [2] was 101% and the normalised response [3] was 106%. The normalised response [4] was 102%, the normalised response [5] was 119% and the normalised response [6] was 93.3%. It also gave a normalised response [7] of 105%, a normalised response [8] of 73.1% and a normalised response [9] of 107%. It also gave a normalised response [10] of 82.2%, a normalised response [11] of 53.4% and a normalised response [12] of 73%. For the same compound, the normalised response [13] was 97.2%, the normalised response [14] was 105% and the normalised response [15] was 102%. It also gave a normalised response [16] of 101%, a normalised response [17] of 104% and a normalised response [18] of 104%.

`CN1CCc2c(c3ccccc3n2Cc2ccc(C(=O)NO)cc2)C1` [Tubastatin A] (1 nM) was tested, and the normalised response [1] was 93.2%, the normalised response [2] was 97.2% and the normalised response [3] was 99.7%. It also gave a normalised response [4] of 103%, a normalised response [5] of 110% and a normalised response [6] of 101%. The normalised response [7] was 105%, the normalised response [8] was 104% and the normalised response [9] was 111%. For the same compound, the normalised response [10] was 109%, the normalised response [11] was 110% and the normalised response [12] was 101%. The normalised response [13] was 99%, the normalised response [14] was 103% and the normalised response [15] was 74.7%. The normalised response [16] was 105%, the normalised response [17] was 95.2% and the normalised response [18] was 93.1%.

`CCCCC(=O)OCC(=O)[C@]1(O)Cc2c(O)c3c(c(O)c2[C@@H](O[C@H]2C[C@H](NC(=O)C(F)(F)F)[C@H](O)[C@H](C)O2)C1)C(=O)c1c(OC)cccc1C3=O` [Valrubicin] (0.5 nM) was tested, and the normalised response [1] was 99.3%, the normalised response [2] was 99.9% and the normalised response [3] was 108%. For the same compound, the normalised response [4] was 101%, the normalised response [5] was 102% and the normalised response [6] was 88.8%. The normalised response [7] was 116%, the normalised response [8] was 136% and the normalised response [9] was 116%. The normalised response [10] was 111%, the normalised response [11] was 99.4% and the normalised response [12] was 119%. For the same compound, the normalised response [13] was 112%, the normalised response [14] was 76% and the normalised response [15] was 108%. The normalised response [16] was 105%, the normalised response [17] was 96.4% and the normalised response [18] was 71.1%.
